In PubChem BioAssay AID493014 (National Center for Advancing Translational Sciences (NCATS), 2011):
The other results are listed elsewhere or left out. These are further read-outs of the screen, such as a control signal, another cell line or another target. No call is given for them. Compounds called inactive in the main read-out are mostly missing here. Words in brackets tell the shape of the fitted curve; partial curves, single points and poor fits give uncertain potencies.

Test: qHTS Assay to Find Inhibitors of Chronic Active B-Cell Receptor Signaling
Details: ABC-DLBCL IkBa-CBG/CBR reporter, luminescence ratio (green luciferase fused to IkBa over red control in TMD8 lymphoma cells), 4 h
How it was run: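 TMD8 human ABC-DLBCL cells with doxycycline-inducible IκBα–green luciferase fusion and unfused red luciferase, in 0.5% FBS medium; compounds up to 46 uM, 4 h at 37C. Green/red luminescence ratio, filter-overlap corrected, fitted to concentration-response curves.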

[1] = measured here: CBR red luminescence, cell number
[2] = measured here: IkBa-CBG green luminescence

CCOc1ccccc1N1C(=O)CC(N(O)c2ccccc2)C1=O (centres undefined)
AC50 [1]: 0.517 µM [falling, full curve]

CCCCCCCC1(C)NC(=O)N(c2ccccc2)N1 (centres undefined)
AC50 [1]: 0.891 µM [rising, full curve, poor fit]

Cc1nnc(NC(=O)c2ccccc2NC(=O)c2ccccc2)s1
AC50 [1]: 2.24 µM [falling, partial curve, poor fit]

CC1(C)CC(=O)c2c(n(S(=O)(=O)c3ccccc3)c3ccc(NS(=O)(=O)c4ccccc4)cc23)C1
AC50 [1]: 6.51 µM [falling, partial curve, poor fit] | AC50 [2]: 14.6 µM [rising, partial curve]

Cc1c(C(=O)OCCOC(C)C)[nH]c2c1C(=O)CC(c1ccco1)C2 (centres undefined)
AC50 [1]: 2.06 µM [rising, full curve] | AC50 [2]: 4.61 µM [falling, partial curve, poor fit]

Cc1ccc(-c2nc(CN3CCN(c4cnccn4)CC3)c(C)o2)o1
AC50 [1]: 3.55 µM [rising, partial curve, poor fit]

Cc1sc2ncnc(N3CCC(C(=O)N(C)CC(=O)Nc4ccccc4Cl)CC3)c2c1C
AC50 [1]: 15.8 µM [falling, single point]

Cc1nc(NC(=O)/C=C/c2ccccc2)sc1C(=O)Nc1ccccc1
AC50 [1]: 2 µM [falling, full curve]

Cc1ccc(NC(=O)OCC(F)(F)C(F)F)cc1NC(=O)OCC(F)(F)C(F)F
AC50 [1]: 5.62 µM [rising, partial curve, poor fit]

CN(C)S(=O)(=O)Nc1cccc(NC(=O)CC23CC4CC(CC(C4)C2)C3)c1
AC50 [1]: 15.8 µM [falling, partial curve]

COC(=O)c1ccc(Nc2nc3ccc(C)cc3n3cnnc23)cc1
AC50 [1]: 3.55 µM [falling, partial curve]

COc1ccc(O)c(-c2cc(-c3ccccc3Cl)[nH]n2)c1
AC50 [1]: 1.41 µM [rising, full curve, poor fit]

C=CCN(C(=O)CSC1=NC(=O)CN1C(C)=O)c1nc(C)c(-c2ccccc2)s1
AC50 [1]: 5.62 µM [rising, single point] | AC50 [2]: 14.1 µM [falling, partial curve, poor fit]

CC(=O)c1cccc(NC(=O)c2cc3ccccn3n2)c1
AC50 [1]: 0.103 µM [falling, full curve, poor fit]

O=C(Nc1nc2cc3c(cc2s1)OCCO3)C1CCCCC1
AC50 [1]: 16.4 µM [falling, partial curve]

COc1ccc(NC(=O)CS(=O)(=O)c2cn(CC(=O)N3CCOCC3)c3ccccc23)cc1
AC50 [1]: 17.8 µM [falling, single point]
